{"sequences": {"note": "The chains behind the UniProt entries cited, without tags or fusion partners. Residues count along the entry.", "UniProt P02769, 25-607": "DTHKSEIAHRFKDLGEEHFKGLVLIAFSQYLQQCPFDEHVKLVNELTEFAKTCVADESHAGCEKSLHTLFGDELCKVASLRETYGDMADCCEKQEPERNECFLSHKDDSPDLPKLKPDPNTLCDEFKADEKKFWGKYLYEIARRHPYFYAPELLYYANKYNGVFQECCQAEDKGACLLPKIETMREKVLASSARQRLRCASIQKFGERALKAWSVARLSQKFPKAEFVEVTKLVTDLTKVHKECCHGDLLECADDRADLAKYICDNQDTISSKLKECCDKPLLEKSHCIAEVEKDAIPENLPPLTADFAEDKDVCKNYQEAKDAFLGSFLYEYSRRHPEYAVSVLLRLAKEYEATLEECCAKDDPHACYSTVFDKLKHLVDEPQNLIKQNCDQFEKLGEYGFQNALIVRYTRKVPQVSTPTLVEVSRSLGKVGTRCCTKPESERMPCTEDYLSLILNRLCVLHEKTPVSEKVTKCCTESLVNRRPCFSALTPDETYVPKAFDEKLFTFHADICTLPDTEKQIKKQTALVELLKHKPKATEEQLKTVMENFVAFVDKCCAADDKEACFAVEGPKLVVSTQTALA"}, "source": "paper PMC4029989", "key": {"[1]": {"target": "Bovine serum albumin (BSA) (Bos taurus) (UniProt P02769)", "assay": "flow cytometry bead binding", "details": "relatively weak / minimal cross-reactivity; PBS binding buffer (SELEX with 0.1 mg/mL salmon sperm DNA and 1 mg/mL BSA, 37 °C); Kd assay on beads in binding buffer, room temperature, 30 min; pH not stated; commercial protein; label: FITC; single-stranded DNA"}, "Trypsin": {"test_system": "Trypsin", "assay": "flow cytometry bead binding", "details": "relatively weak; PBS binding buffer (SELEX with 0.1 mg/mL salmon sperm DNA and 1 mg/mL BSA, 37 °C); Kd assay on beads in binding buffer, room temperature, 30 min; pH not stated; commercial protein; label: FITC; single-stranded DNA"}}, "note": "Construct, isoform or probe ends are uncertain for at least one entry. Weaker means in comparison with the reference protein, sequence or condition of that experiment.", "data": [{"sequence": "CCGCCCAAATCCCTAAGAGAAGACTGTAATGACATCAAACCAGACACACTACACACGCA [B1-4]", "values": [{"measurement": "binding result", "setting": "[1]", "result": "binds more weakly"}, {"measurement": "binding result", "setting": "Trypsin", "result": "binds more weakly"}]}]}
